Assay results from PubChem BioAssay AID1794845 (National Center for Advancing Translational Sciences (NCATS), 2023).
Screen size: about 6,900 compounds; fewer than 10 were called active. Calls follow the shape of the dose curve; as a rule, active = well fitted curve in the direction sought with a large enough effect; inconclusive = small, poorly fitted or top-dose-only effect, or another doubt; inactive = no such curve, though single readings can be large or run the other way. The list shows a part of the results.

Chains of the proteins cited; added tags and fusions are not shown. Lines headed by an entry give the natural chain unless they say otherwise; changes in a name come on top.
UniProt C7C422: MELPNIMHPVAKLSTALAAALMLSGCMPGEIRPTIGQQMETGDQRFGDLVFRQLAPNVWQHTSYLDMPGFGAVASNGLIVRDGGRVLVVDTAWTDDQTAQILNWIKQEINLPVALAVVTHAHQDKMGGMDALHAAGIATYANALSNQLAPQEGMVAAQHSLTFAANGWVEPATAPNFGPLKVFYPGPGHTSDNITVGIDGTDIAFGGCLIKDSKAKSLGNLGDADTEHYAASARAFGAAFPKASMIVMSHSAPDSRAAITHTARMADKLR

The molecules below were run against Metallo-beta-lactamase type 2 (Klebsiella pneumoniae) (UniProt C7C422) (assay: qHTS to identify inhibitors of the New Delhi Metallo-beta-lactamase (NDM): primary screen against the NCATS Gemini Collection). Details: NDM-1 enzyme, meropenem hydrolysis, absorbance 300 nm; at 38.4 µM (top of the series) unless noted.
Summary of the method: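 Meropenem hydrolysis (50 uM final) by 2 nM NDM-1 read as 300 nm absorbance after 30 min, following >30 min compound–enzyme preincubation in HEPES pH 7.0 with 1 uM ZnSO4 and 0.01% Tween20.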
Also: % of control where 0% means no effect.

Activity % (negative = inhibition), inactive:
COc1cccc(CN2Cc3cc(NC(=O)Cc4cccs4)ccc3OCC2=O)c1OC 11.7%, Cc1nn2c(c1-c1ccccc1C(C)C)N([S+](=O)([O-])c1ccc(C(C)C)cc1)CCC2 9% [at 57.5 µM], O=C(CCCc1ccccc1)Nc1ccnn1C1CCN(C(=O)c2ccccc2F)CC1 4.71%, CC(C)N1C(=O)C2(CCN(C(=O)c3ccccc3F)CC2)C1c1ccccc1 (configuration not stated) 1.34%, Cc1nn2c(c1-c1ccccc1C(C)C)N(C(=O)c1cccnc1)CCC2 3.01% [at 57.5 µM], COc1ccccc1CN1CCC(CN(CC(C)C)C(=O)C2C=CCN2)CC1 (configuration not stated) -2.2%, CN(Cc1noc(C2CCCC2)n1)c1cc(C2CC(O)C2)ncn1 (configuration not stated) -0.467%, COc1cc2nc(-c3cc4c(c(OC)c3)OCCNC4)cc(C)c2cc1OC -0.172%, COC(=O)c1c(NC(=O)c2ccccc2)c2cc(NC3CCOCC3)cnc2n1CC1CCCO1 (configuration not stated) 3.61%, Cc1nc(C)c(C(=O)N2CCC(C(=O)N3CCCCCCNC(=O)CC3)CC2)s1 -0.427%, CC(=O)N1CCC(N[C@@H]2CO[C@H](CNC(=O)c3ccncc3)[C@H]2O)CC1 1.34% [at 57.5 µM], C[C@@H](c1ccccc1)N(C)C(=O)c1cc(COc2cccc(F)c2)[nH]n1 27.1%, COc1ccc(CCC(=O)N2CCCC(n3cc(-c4nc(-c5ccccc5)no4)nn3)C2)cc1 (configuration not stated) 18.1%, O=C(Nc1ccc(Oc2ccccc2)cc1)N[C@H]1CO[C@H]2[C@@H]1OC[C@@H]2n1nnnc1Oc1ccc(-n2cncn2)cc1 21.2%, CC(=O)N1CCCN(Cc2ccc3c(c2)OCO3)c2ccccc21 6.47%, O=C(Cc1ccc2c(c1)OCO2)N1CCOCC2(CN(Cc3ccccc3)C2)C1 7.51% [at 57.5 µM], CC(C)C(=O)N1CCC2(CC1)OC(=O)N(Cc1ccccc1C#N)C2(C)c1ccccc1 (configuration not stated) 1.42% [at 57.5 µM], COc1ccc([C@H]2C[C@@H](O)[C@@H](O)[C@@H]2NC(=O)c2ccccn2)cc1 33.4% [at 57.5 µM], CCNC(=O)N1CCCCCC1CN1CCC(C)CC1 (configuration not stated) 22.6%, CC(C)NC(=O)O[C@@H]1CC[C@]2(C)C(CC[C@@H](O)[C@H]2CC(=O)NCc2ccco2)[C@]1(C)CO (some centres not stated) 3%, C[C@H](c1ccccc1)N1C(=O)[C@@H]2CN(C(=O)CC(C)(C)C)CCN2C1=O -4.33% [at 57.5 µM], CC(O)CN1CC2(CCC1=O)CCN(CCCn1ccnc1)CC2 (configuration not stated) 1.64%, O=C(C1CC1)N1CCC2(CC1)NC(=O)N(c1cccc(Cl)c1)N2 -0.13%, C[C@H](O)c1onc(-c2ccc(F)cc2)c1C(=O)N1CCCC1 -1.17% [at 57.5 µM], CN1CCN([C@H]2CCN(Cc3cccs3)C[C@H]2CCC(=O)O)CC1 47.4%, O=C(C[C@H]1NC(=O)c2ccccc2NC1=O)Nc1ccc(N2CCCS2(=O)=O)cc1 1.72%, Cc1ccc(NC(=O)N2CCCN(CCn3nc4n(c3=O)CCCC4)CC2)cc1F 0.991%, Cc1noc(C)c1-c1cn(C)c(=O)n2cc(COc3ccc(Cl)cc3)nc12 10.7% [at 57.5 µM], COc1ccc(OC)c(S(=O)(=O)Nc2nc3c(s2)C[C@]2(C)CC[C@@H]4[C@H](OC(=O)[C@H]4C)[C@H]2[C@@H]3C)c1 1.44%, COc1ccc(CC(=O)N[C@H]2[C@H](O)[C@H](O)C[C@@H]2c2ccccc2)cc1 16.6% [at 57.5 µM], CCN1CCN(CC(O)COc2cccc(CNCc3cnn(CC)c3)c2)CC1 (configuration not stated) 4.28%, O=C(C1CC1)N1CCn2c(nn(-c3ccc(F)cc3)c2=O)C1 3.77% [at 57.5 µM], C[S+](=O)([O-])c1cccc(NC(=O)Cc2c[nH]c3ncc(-c4cccnc4)cc23)c1 50.2% [at 57.5 µM], COc1ccc(CCC(=O)N2CCC(Cc3nc(-c4ccc(OC)cc4)no3)CC2)cc1 -1.68%, CCCS(=O)(=O)N1CCC(c2noc(-c3ccccc3)n2)C1 (configuration not stated) -2%, COc1ccc(CN2CCC3(C2)C(=NC2CCCCC2)NC(=O)N3c2cc(F)cc(F)c2)cc1 (configuration not stated) 8.51%, COc1cc2c(cc1O)NC(=O)CC2c1cn[nH]c1-c1cc(C)ccc1C (configuration not stated) 0.433%, CC(C)COc1cc(=O)n2c(c1C(=O)NC1CCCCC1)CCCCC2 27.5%, CS(=O)(=O)N1CCC(OC2CCN(C(=O)c3cccnc3)CC2)CC1 -8.58%, CCC1(N2CCN(C(=O)c3ccccc3C(F)(F)F)CC2)CCN(C(=O)C(C)C)C1 (configuration not stated) 2.4%, COc1ccc(C(=O)N2CCC3(CC2)CN(c2ccccc2)C3=O)cc1OC -1.28%, O=C(C1CCN(c2cnn(Cc3ccccc3)c(=O)c2)C1)N1CCCC1 (configuration not stated) 1.93%, CCC(CC)C(=O)NCCc1noc(C)n1 -2.09%, Cc1ccc(-c2ncc(C(=O)N3CCC(Nc4ncccn4)CC3)c(=O)[nH]2)cc1 18.3%, COc1cccc(C(=O)N2CCC3(CCNCC3)CC2)c1C 18.6%, O=[S+]1([O-])N(c2ccccc2)C[C@@H](O)[C@]12CCN(Cc1ccc(OC(F)F)cc1)C2 -12.1%, O=C(c1cccc(F)c1)N1CCCC(CN2CCOCC2)CC1 (configuration not stated) 12.2%, COc1cc(CNCCc2ccc(Cl)cc2)ccc1OCC(O)CN1CCOCC1 (configuration not stated) -1.82%, CCc1cc(N2CCN(C(=O)[C@H]3CCC[C@@H](O)C3)CC2)ncn1 5.39%, O=C(O)C1=NOC2CN(Cc3nc4ccccc4s3)CC12 (configuration not stated) 3.65% [at 57.5 µM], COc1cccc(CC(=O)N2CCCCCCN(C)C(=O)[C@H]3CCC[C@H]32)c1 12.9%, Cc1cccc(-c2cccc(CN3CCC(N[S+](=O)([O-])c4c(C)noc4C)CC3)c2)c1 -0.993%, COC(=O)CC(NC(=O)Nc1cccn2nc(C)nc12)c1ccccc1 (configuration not stated) 2.43%, CCC1(CO)CCCN(CCCOc2ccc(C(N)=O)cc2)C1 (configuration not stated) -4.55%, NC(=O)CN1CCC(c2nc(-c3ccc4nc[nH]c4c3)no2)CC1 -1.29%, CCCCC1C(=O)N(C)CCN1c1nc2c(s1)c(C)nn2C (configuration not stated) 1.29%, O=C(c1cnn2cccnc12)N(Cc1ccncc1)Cc1cccc(OCCc2ccc(F)cc2)c1 24.3%, CCNc1ncnc2sc3c(c12)CCN(Cc1ccco1)C3 12.7%, COCCNC(=O)[C@@H]1CCC[C@@H](NC(=O)c2c(-c3ccccc3)noc2C)CN(C)C(=O)C1 -15.5%, O=C([C@@H]1C[C@H](Oc2cccnc2)CN1C(=O)c1cc2ccccc2[nH]1)N1CCCC1 18.5%, Cn1nc(N2CCC(NS(=O)(=O)c3ccc4c(c3)CCC4)CC2)ccc1=O 29.6%, Cc1ccc(NC(=O)N2CCC(c3noc(COCC4CC4)n3)CC2)cc1F 0.901%, CCn1c(CO)nnc1C1CC(NC(=O)c2oc3cc(OC)ccc3c2C)C1 (configuration not stated) -11.9%, CC1CN(c2ccccc2C#N)C(=O)CN1C(=O)c1ccc2c(c1)OCCO2 (configuration not stated) -0.521%, COC1CCCOC12CCN(C(=O)CCn1c(C)nc3ccccc31)CC2 (configuration not stated) 2.42%, CNC(=O)[C@@H]1C[C@H](Oc2ccccc2)CN1S(=O)(=O)Cc1ccccc1F -0.29%, Cc1cc(C)n(Cc2cccc(C(=O)N3Cc4ccccc4C(O)C3)c2)n1 (configuration not stated) -2.66%, CCNC(=O)c1ccc2c(c1)OCCN(c1cccc(OC(F)(F)F)c1)C2 20.1% [at 57.5 µM], COc1ccc(C(=O)N2CC(N(C3CCOCC3)S(C)(=O)=O)C2)cn1 -5.21%, COC[C@@H]1OC[C@@]2(C)C3CC[C@@H](O)[C@@H](CC(=O)N4CCCCC4)[C@]3(C)CC[C@H]2O1 (some centres not stated) -3.61% [at 57.5 µM], O=C(NCc1cccc(C(F)(F)F)c1)c1ccc2nnc(-c3cc[nH]c3)n2c1 18.4%, Cc1ccc(-c2ccccc2CN2CCN(C(=O)Nc3ccccc3)CC2)cc1Cl 0.811%, O=C(NC1CCCC1)c1ccc(OC2CCN(CCCC(F)(F)F)CC2)c(Cl)c1 5.27%, Cc1nn2c(c1-c1ccccc1C(C)C)N(C(=O)c1cnccn1)CCC2 1.93% [at 57.5 µM], COc1ccc(CO[C@H]2COCCN(c3nc4ccccc4s3)C2)cc1 -2.68% [at 57.5 µM], O=C(c1cccnc1)N1CCC2(CC1)CC(N(C(=O)c1ccccc1)C1CC1)CCO2 (configuration not stated) -8.5%, COc1ccc(C(=O)Nc2cnc3c(c2)CCC3)cc1 9.21%, CC(C)C1=NOC2(CCN(C(=O)C3CCCC3)CC2)C1 -0.922% [at 57.5 µM], CCC1(N2CCN(S(=O)(=O)c3cc(F)ccc3C)CC2)CCN(C(=O)NC)C1 (configuration not stated) -2.47%, CN(CCO)C(=O)c1cn2cc(-c3cccs3)n(CC3CC3)c(=O)c2n1 -0.0523%, COCCNC(=O)c1nc(-c2ccsc2)c2ccccn12 31.8% [at 57.5 µM], CC(C)NC(=O)NC[C@H]1O[C@@H](CO)[C@@H](O)[C@H]1N(C)CCN(C)C 15.7% [at 57.5 µM]
